Results reported in the supplement of paper PMC12872613.
Where a name gives a salt, the structure may show the parent alone. This is one part of the list. Cut-off read from the data, not from the text of the source: active = 0.7 or more and inactive = the rest. Most values come without repeats; read them as rough.

These compounds were tested on MiaPaCa-2 CLSA-25 (assay: cell death relative to DMSO vehicle (fraction); higher = more cytotoxic). Settings: 5 µM; treatment time 48 h; medium cystine 25 µM.

Compound	cell death
CC(C)OC(=O)C(C)(C)Oc1ccc(C(=O)c2ccc(Cl)cc2)cc1 [Fenofibrate]	inactive: 0.0968
C[C@H](NCc1ccc(OCc2cccc(F)c2)cc1)C(N)=O [Safinamide mesylate]	inactive: 0.0393
COc1ccc2[nH]cc(CCNC(C)=O)c2c1 [Melatonine]	inactive: 0.0482
CC(C)C[C@H](NC(=O)[C@H](CCc1ccccc1)NC(=O)CN1CCOCC1)C(=O)N[C@@H](Cc1ccccc1)C(=O)N[C@@H](CC(C)C)C(=O)[C@@]1(C)CO1 [Carfilzomib]	active: 0.718
C=C1/C(=C\C=C2/CCC[C@]3(C)[C@@H]([C@H](C)CCCC(C)(C)O)CC[C@@H]23)C[C@@H](O)C[C@@H]1O [Calcitriol]	inactive: 0.177
CCOC(=O)[C@H](CCc1ccccc1)N[C@H]1CS[C@H](c2cccs2)CN(CC(=O)O)C1=O [Temocapril HCl]	inactive: 0.196
CCOC(=O)N1c2ccc(C(F)(F)F)cc2[C@@H](N(Cc2cc(C(F)(F)F)cc(C(F)(F)F)c2)C(=O)OC)C[C@H]1CC [Torcetrapib]	inactive: 0.445
CCOC(=O)[C@@H](N)Cc1ccc(-c2cc(O[C@H](c3ccc(Cl)cc3-n3ccc(C)n3)C(F)(F)F)nc(N)n2)cc1 [Telotristat Etiprate]	inactive: 0.369
COC(=O)CN(c1ccc(CN(c2ccc(OCc3ccc(C)cc3)c(C(=O)OC)c2)S(=O)(=O)Cc2ccccc2)cc1)S(C)(=O)=O	inactive: 0.147
N=C(NOCC(O)CN1CCCCC1)c1cccnc1 (centres undefined)	inactive: 0.0869
NCCC(O)(P(=O)(O)O)P(=O)(O)O [Pamidronate disodium salt]	inactive: 0.662
CN(C)CC(=O)O [N,N-Dimethylglycine]	inactive: -0.00321
Nc1ncnc2c1ncn2C1OC(COP(=O)(O)O)C(O)C1O (centres undefined) [Adenosine 5'-monophosphate monohydrate]	inactive: 0.164
CCC(=O)O[C@]1(C(=O)CCl)[C@@H](C)C[C@H]2[C@@H]3C[C@H](F)C4=CC(=O)C=C[C@]4(C)[C@@]3(F)[C@@H](O)C[C@@]21C [Halobetasol Propionate]	inactive: 0.444
CCCN(CCC)S(=O)(=O)c1ccc(C(=O)O)cc1 [Probenecid]	inactive: 0.219
CC(C)C(=O)OCC(=O)[C@@]12O[C@H](C3CCCCC3)O[C@@H]1C[C@H]1[C@@H]3CCC4=CC(=O)C=C[C@]4(C)[C@H]3[C@@H](O)C[C@@]12C [Ciclesonide]	inactive: 0.157
Cc1ccc([N+](=O)[O-])cc1S(=O)(=O)N(C)C	inactive: 0.22
CC(C)OC(=O)C(C(=O)OC(C)C)=C1SC=CS1 [Malotilate]	inactive: 0.211
COc1c2occc2cc2ccc(=O)oc12 [8-Methoxypsoralen]	active: 0.829
COc1cc(C)c(/C=C/C(C)=C/C=C/C(C)=C/C(=O)O)c(C)c1C [Acitretin]	inactive: 0.15

A draw from above in order of formula weight, low to high.
Compound	cell death
COc1c2occc2cc2ccc(=O)oc12 [8-Methoxypsoralen]	active: 0.829
CC(C)OC(=O)C(C)(C)Oc1ccc(C(=O)c2ccc(Cl)cc2)cc1 [Fenofibrate]	inactive: 0.0968
C=C1/C(=C\C=C2/CCC[C@]3(C)[C@@H]([C@H](C)CCCC(C)(C)O)CC[C@@H]23)C[C@@H](O)C[C@@H]1O [Calcitriol]	inactive: 0.177

The listing continues:

Compound	cell death
CCN(CC)CCOc1ccc2c(c1)C(=O)c1cc(OCCN(CC)CC)ccc1-2 [Tilorone dihydrochloride]	inactive: 0.161
O=C(c1cc(S(=O)(=O)Nc2ccccc2F)c(F)cc1Cl)N1CCN2CCC[C@@H]2C1	inactive: 0.128
Cc1ccc([C@@H]2O[C@H](CO)[C@@H](O)[C@H](O)[C@H]2O)cc1Cc1ccc(-c2ccc(F)cc2)s1 [Canagliflozin]	inactive: 0.54
C=CCN1CC[C@]23c4c5ccc(O)c4O[C@H]2[C@@H](OCCOCCOCCOCCOCCOCCOCCOC)CC[C@@]3(O)[C@H]1C5 [Naloxegol oxalate]	inactive: 0.222
C[C@H]1C[C@@H]2[C@H]([C@@H](O)C[C@@]3(C)[C@H]2CC[C@]3(O)C(=O)CO)[C@@]2(C)C=CC(=O)C=C12 [Methylprednisolone]	inactive: 0.112
COc1cc(O)c(CC=C(C)C)c(O)c1C(=O)/C=C/c1ccc(O)cc1 [Xanthohumol]	inactive: 0.0605
C[C@@H]1O[C@@H](Oc2cc(O)c3c(=O)c(O[C@@H]4O[C@@H](C)[C@H](O)[C@@H](O)[C@H]4O)c(-c4ccc(O)cc4)oc3c2)[C@H](O)[C@H](O)[C@H]1O [Kaempferitrin]	active: 0.755
OC[C@H]1O[C@@H](c2ccc(Cl)c(Cc3ccc(O[C@H]4CCOC4)cc3)c2)[C@H](O)[C@@H](O)[C@@H]1O [Empagliflozin]	active: 0.793
Cc1c(-c2ccnn2C)cc(C(=O)NCc2ccc(S(C)(=O)=O)cn2)c(=O)n1-c1cccc(C(F)(F)F)c1 [Alvelestat]	inactive: 0.165
CC(=O)Oc1ccc(C(c2ccc(OC(C)=O)cc2)c2ccccn2)cc1 [Bisacodyl]	inactive: 0.206
CC(=O)CCCCn1c(=O)c2c(ncn2C)n(C)c1=O [Pentoxifylline]	inactive: 0.0465
O=C(Oc1cccc(F)c1OC(=O)c1cccc(O)c1)c1cccc(O)c1	inactive: 0.158
C/C1=C2N=C(/C=C3N=C(/C(C)=C4\[N-]C(C(CC(N)=O)C4(C)CCC(=O)NCC(C)OP(=O)([O-])OC4C(CO)OC(n5cnc6cc(C)c(C)cc65)C4O)C4(C)N=C1C(CCC(N)=O)C4(C)CC(N)=O)C(CCC(N)=O)C\3(C)C)C(CCC(N)=O)C/2(C)CC(N)=O.[CH3-].[Co+3] (centres undefined) [Methylcobalamin]	inactive: 0.0969
Cc1cc(N2C[C@@H](C)N[C@@H](C)C2)ncc1-c1ccc(-c2nc3c(ccn3C)c(=O)[nH]2)cc1	inactive: 0.299
CC(=O)OCC(=O)[C@H]1CC[C@H]2[C@@H]3CCC4=CC(=O)CC[C@]4(C)[C@H]3CC[C@]12C [Deoxycorticosterone acetate]	inactive: 0.245
Cc1cc(=O)oc2cc(O)ccc12 [4-Methylumbelliferone]	inactive: 0.0482
C[C@H](CCC(=O)NCC(=O)O)[C@H]1CC[C@H]2[C@@H]3[C@H](O)C[C@@H]4C[C@H](O)CC[C@]4(C)[C@H]3CC[C@]12C [Glycochenodeoxycholic Acid]	inactive: 0.605
OCC1OC(O)CC(O)C1O [2-Deoxy-D-glucose]	inactive: 0.198
O=c1c(-c2ccc(O)cc2)coc2cc(O)ccc12 [Daidzein]	inactive: 0.042
